Source: PubChem BioAssay AID2685 (National Center for Advancing Translational Sciences (NCATS), 2010)
The other results are listed elsewhere or left out. Further columns of the screen follow, without active or inactive calls. Compounds called inactive in the main read-out are mostly missing here. Words in brackets tell the shape of the fitted curve; partial curves, single points and poor fits give uncertain potencies.

Assay: qHTS Assay for Lipid Storage Modulators in Drosophila S3 Cells;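 on cell number change: cells counted by Cell Tracker Red CMTPX staining in the red channel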
Conditions: BODIPY lipid droplet fluorescence, 18-24 h; for cell number change: measured here: cell count max response, cells fed with added oleic acid
Outline: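 Drosophila S3 cells got compounds at several concentrations plus oleic acid (400 uM solution). Laser-scanning cytometry with 488 nm excitation read lipid droplets at 500-530 nm and cells at 575-640 nm. Percent activity was relative to 20 uM Triacsin C.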

[1] = measured here: lipid fluorescence (Fed channel) AC50, cells fed with added oleic acid
[2] = measured here: cell number channel AC50, cells fed with added oleic acid

## O=C(Nc1ccccc1N1CCN(c2ccc(F)cc2)CC1)c1ccccc1
  cell number change: -15.1%
[1]
  AC50: 23.1 µM [rising, single point]

## Cc1ccc(C)n1-c1ccc(-c2ccn[nH]2)cc1
  cell number change: 8.54%

## Cn1cccc1C(=O)NC(=O)COC(=O)CNS(=O)(=O)c1ccc(Br)cc1
  cell number change: -10%

## CC(=O)Nc1ccc(C2=NNC(=Nc3cccc(S(=O)(=O)N(C)C)c3)SC2)cc1
  cell number change: -12.1%
[2]
  AC50: 3.66 µM [falling, single point]
[1]
  AC50: 3.66 µM [falling, single point]

## COc1ccc(/C(O)=C2/C(=O)C(=O)N(CCCN(C)C)C2c2cccnc2)cc1 (stereo unspecified)
  cell number change: -7.42%
[1]
  AC50: 0.00517 µM [falling, full curve, poor fit]

## COc1cccc(CNC(=O)C2CCCN(S(=O)(=O)c3cnc[nH]3)C2)c1 (stereo unspecified)
  cell number change: 8.29%
[1]
  AC50: 0.517 µM [rising, single point]

## Cc1ccc(CN(C(=O)c2csnn2)C(C(=O)NC2CCCC2)c2ccco2)cc1 (stereo unspecified)
  cell number change: 12%
[1]
  AC50: 0.58 µM [rising, single point]

## Fc1ccccc1-c1ccc(/C=N/Nc2nc3ccccc3[nH]2)o1
  cell number change: 117%
[2]
  AC50: 18.4 µM [rising, single point]
[1]
  AC50: 29.1 µM [falling, single point]

## COc1ccc(CCNC(=O)c2cc(-c3cccs3)on2)cc1OC
  cell number change: -12%
[1]
  AC50: 14.6 µM [rising, single point]

## O=C(COC(=O)c1ccc(S(=O)(=O)N2CCCC2)cc1)NCc1ccccc1
  cell number change: 3.21%

## COc1ccc(Cn2c(=O)[nH]c3cc(C(=O)NCCCN4CCCCC4)ccc3c2=O)cc1
  cell number change: 12.5%
[1]
  AC50: 0.13 µM [rising, single point]

## CC(=O)Nc1ccc(NC(=O)CN2CCN(c3ccccn3)CC2)cc1
  cell number change: 22.7%
[1]
  AC50: 7.31 µM [rising, partial curve]

## COc1cccc(NC(=O)C2CCC(CNS(=O)(=O)c3ccc4c(c3)CC(C)N4C(C)=O)CC2)c1 (stereo unspecified)
  cell number change: -4.94%
[1]
  AC50: 29.1 µM [falling, single point]

## COc1ccc(S(=O)(=O)N2CCOCC2)cc1C(=O)Nc1nc2ccccc2s1
  cell number change: -69.4%
[2]
  AC50: 20.6 µM [falling, partial curve]
[1]
  AC50: 29.1 µM [falling, single point]

## Cc1cc(C)n2nc(CNS(=O)(=O)c3c(F)c(F)c(F)c(F)c3F)nc2n1
[2]
  AC50: 2.06 µM [falling, partial curve]
[1]
  AC50: 4.11 µM [falling, partial curve]

## O=C(Cc1ccccc1)c1c[nH]c(C(=O)O)c1
  cell number change: -38.6%
[2]
  AC50: 0.184 µM [falling, partial curve, poor fit]

## Cc1ccc(S(=O)(=O)N[C@H](C(=O)N2CCC(C(=O)NCC(=O)O)CC2)C(C)C)cc1
  cell number change: -33.2%
[2]
  AC50: 4.61 µM [falling, full curve, poor fit]

## COc1cc(OC)cc(-c2c(C#Cc3ccsc3)c3cc(Br)ccc3n2C)c1
  cell number change: 12.3%
[1]
  AC50: 6.51 µM [falling, single point]

## Cc1ccc(/C(N)=N/OC(=O)c2ccc3ccccc3c2)cc1
[1]
  AC50: 1.3 µM [falling, partial curve, poor fit]

## CCOC(=O)C1C(=O)OC(C)(C)C1C(CC)C(=O)c1ccccc1 (stereo unspecified)
  cell number change: -18.5%
[2]
  AC50: 0.00461 µM [falling, full curve, poor fit]
[1]
  AC50: 0.00461 µM [falling, full curve, poor fit]

## Cc1cccc([N+](=O)[O-])c1NC(=O)CSc1nnc2ccccn12
  cell number change: -31.2%
[2]
  AC50: 32.6 µM [falling, single point]
[1]
  AC50: 29.1 µM [falling, single point]

## COc1cccc(NC(=O)COC(=O)Cn2c(C)csc2=O)c1
  cell number change: -12.2%
[1]
  AC50: 14.6 µM [falling, partial curve]

## Cn1c(CCN2CCN(c3ccccn3)CC2)nc2cc(NC(=O)COc3ccccc3)ccc21
  cell number change: 9.92%
[2]
  AC50: 6.51 µM [rising, single point]
[1]
  AC50: 6.51 µM [rising, single point]

## COc1cccc(OCc2cc(C(=O)N(C)Cc3nc(C)cs3)no2)c1
  cell number change: 6.07%

## CC(=O)c1ccc(OCC(=O)N2CCN(S(=O)(=O)c3ccc(Br)s3)CC2)cc1
  cell number change: -6.52%

## CCOc1ccc(S(=O)(=O)N(C)C2CCCCC2)cc1
[1]
  AC50: 7.31 µM [falling, single point]

## O=C(O)c1ccc(OCc2occc2C(=O)O)cc1
  cell number change: 9.17%
[2]
  AC50: 0.103 µM [falling, full curve]
[1]
  AC50: 0.116 µM [falling, full curve]

## C=CCn1c(=O)c2ccccc2n2c(SCC(=O)Nc3sc(C(=O)N(CC)CC)c(C)c3C(=O)OCC)nnc12
[2]
  AC50: 2.59 µM [rising, partial curve]
[1]
  AC50: 0.00461 µM [rising, full curve, poor fit]

## Cc1csc(N(C(=O)c2ccc(S(=O)(=O)N(C)C)cc2)c2ccccc2)n1
[2]
  AC50: 1.3 µM [rising, full curve]
[1]
  AC50: 1.03 µM [rising, partial curve]

## COc1ccc(S(=O)(=O)N(Cc2cc3cc(C)ccc3[nH]c2=O)CC2CCCO2)cc1 (stereo unspecified)
  cell number change: 4.1%

## N/C(=N\OC(=O)COc1ccc(Cl)cc1Br)c1ccncc1
  cell number change: -16.6%
[1]
  AC50: 0.651 µM [falling, partial curve, poor fit]

## NC(CSCc1cccc(Br)c1)C(=O)O (stereo unspecified)
  cell number change: 69.3%
[2]
  AC50: 29.1 µM [rising, single point]

## CCOc1cc(C(=O)Nc2ncccn2)cc(OCC)c1OCC
  cell number change: -3.98%
[1]
  AC50: 0.116 µM [falling, full curve, poor fit]

## Cc1csc(NC(=O)c2ccc(C)c(S(=O)(=O)N3CCOCC3)c2)n1
[1]
  AC50: 29.1 µM [falling, single point]

## CCOc1ccc(S(=O)(=O)Nc2ccn(C)n2)cc1
  cell number change: 0.518%
[1]
  AC50: 1.64 µM [rising, partial curve]

## CC(C)c1ccccc1NC(=O)COC(=O)CCN1C(=O)/C(=C\C=C\c2ccccc2)SC1=S
  cell number change: 13.9%

## CC(=O)c1c(C)nc2ccc(Cl)cn12
[2]
  AC50: 2.06 µM [rising, partial curve]
[1]
  AC50: 0.517 µM [rising, single point]
